Values from PubChem BioAssay AID1259254 (NCATS, 2017).
Here is a random part of about 59,000 reagents tested. About 1,550 of all reagents (2.6%) count as active. 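G2 share is only a proxy for re-replication; each gene was hit by three separate siRNAs, and active genes were retested.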 Raw values are not corrected between plates. Not given: the amount of reagent.

- Assay: 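Finding genes that stop cells copying their DNA twice in one cycle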 (primary screen)
- Cell system: human HCT116 colorectal cancer cells
- Reagents: single siRNA against human genes
- Timing: 3 days
- Detection: 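Imaged Hoechst DNA stain sorts each cell into a cycle phase by DNA amount; per plate, G2 fraction set to 0% for non-targeting and 100% for GMNN siRNA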
- Scale: G2 robust z-score and G2 cells, % of GMNN control: higher = more G2 cells, more excess DNA replication; raw share of cells in G2: higher = larger share of cells with G2 DNA content
- Hit rule: 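An siRNA counts as active if its G2 robust z-score lies at least 5 MADs above the screen median; here such calls match roughly 38% of GMNN control or more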

target	PubChem SID	G2 robust z-score	G2 cells, % of GMNN control	raw share of cells in G2 (%)	outcome
TIMM22 (translocase of inner mitochondrial membrane 22)	SID160739318	-0.623	-1.42	3.31	inactive
TIMM22 (translocase of inner mitochondrial membrane 22)	SID160739319	0.721	8.04	7.59	inactive
TIMM22 (translocase of inner mitochondrial membrane 22)	SID160739320	-0.738	-2.22	2.55	inactive
PTGDR2 (prostaglandin D2 receptor 2)	SID160730289	8.03	59.4	27.1	active
PTGDR2 (prostaglandin D2 receptor 2)	SID160730290	1.25	11.7	8.62	inactive
PTGDR2 (prostaglandin D2 receptor 2)	SID160730291	-0.501	-0.555	3.1	inactive
APOBEC3H (apolipoprotein B mRNA editing enzyme catalytic subunit 3H)	SID160760127	3.18	25.3	18	inactive
APOBEC3H (apolipoprotein B mRNA editing enzyme catalytic subunit 3H)	SID160760128	4.17	32.3	16.5	inactive
APOBEC3H (apolipoprotein B mRNA editing enzyme catalytic subunit 3H)	SID160760129	2.69	21.9	13.9	inactive
SDR16C6P	SID160733442	-0.613	-1.35	2.66	inactive
SDR16C6P	SID160768176	1.71	15	9.41	inactive
SDR16C6P	SID160768177	-0.754	-2.33	2.53	inactive
CDYL (chromodomain Y like)	SID160722184	1.79	15.6	11.1	inactive
CDYL (chromodomain Y like)	SID160722185	-1.14	-5.06	2.69	inactive
CDYL (chromodomain Y like)	SID160722186	-0.216	1.44	3.69	inactive
PRELP (proline and arginine rich end leucine rich repeat protein)	SID160714864	1.41	12.9	9.59	inactive
PRELP (proline and arginine rich end leucine rich repeat protein)	SID160714865	-0.188	1.64	4.69	inactive
PRELP (proline and arginine rich end leucine rich repeat protein)	SID160714866	1.25	11.8	9.04	inactive
ISCA2 (iron-sulfur cluster assembly 2)	SID160732391	0.222	4.53	3.14	inactive
ISCA2 (iron-sulfur cluster assembly 2)	SID160756036	1.76	15.3	10.2	inactive
ISCA2 (iron-sulfur cluster assembly 2)	SID160756038	0.186	4.28	4.6	inactive
GEMIN8 (gem nuclear organelle associated protein 8)	SID160742604	1.44	13.1	8.3	inactive
GEMIN8 (gem nuclear organelle associated protein 8)	SID160742605	2.4	19.9	12.6	inactive
GEMIN8 (gem nuclear organelle associated protein 8)	SID160742606	4.7	36	15.1	inactive
SLC34A3	SID160757971	1.26	11.8	7.8	inactive
SLC34A3	SID160757972	4.54	34.9	13.7	inactive
SLC34A3	SID160757973	-0.0999	2.26	3.86	inactive
CGGBP1 (CGG triplet repeat binding protein 1)	SID160720300	0.954	9.68	9.42	inactive
CGGBP1 (CGG triplet repeat binding protein 1)	SID160720301	-0.502	-0.565	3.67	inactive
CGGBP1 (CGG triplet repeat binding protein 1)	SID160720302	1.13	10.9	7.21	inactive
